Results deposited as PubChem BioAssay AID504791 (Drosophila RNAi Screening Center, 2011).
The screen tested about 23,000 reagents; shown is a random part of those that have a named target and a result. Over the whole deposit, 199 (0.86%) were called active. 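Plate-scaled ratios behind the calls are not deposited; printed light signals are raw; many rows marked increased or decreased are still called inactive.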 The numbers tell different reagents against one gene apart. Names joined by + are all predicted targets of the reagent. Not stated in the record: the direction of the score.

- Test: 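Genes whose knock-down strengthens or weakens small-RNA reporter silencing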 (primary screen)
- Cell system: Drosophila S2-derived reporter cells
- Reagents: long dsRNA against Drosophila genes, about 150-250 ng dsRNA per well (siRNA assay); about 80-120 ng (miRNA assay)
- Duration: about 5 days (siRNA assay); about 4 days (miRNA assay)
- Treatment: copper sulfate induction of reporters: 25 µM (siRNA assay); 200 mM stated (miRNA assay), 1-2 days before reading
- Read-out: 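Dual luciferase assay: Renilla to firefly signal ratio in each well, scaled to the mean ratio of its plate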
- Units: stable assay Renilla, run 1 in luminescence; stable assay firefly, run 1 in luminescence
- Rule for the call: 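First-pass picks had plate-scaled ratios over 1.5 for the siRNA assay, over 1.6 for the miRNA assay, or under 0.6; two distinct dsRNAs had to score alike on retest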

| Gene | reagent no. | stable siRNA reporter change | miRNA reporter change | stable assay Renilla, run 1 | stable assay firefly, run 1 | activity call |
| --- | --- | --- | --- | --- | --- | --- |
| GstE14 (GeneID 36467) | 1 | – | – | 5542 | 3.13e5 | inactive |
| Dhc93AB (GeneID 42485) | 1 | – | – | 7778 | 2.88e5 | inactive |
| sro (GeneID 43512) | 1 | – | – | 3584 | 3.83e5 | inactive |
| Hpr1 (GeneID 40723) | 1 | – | – | 7882 | 4.52e5 | inactive |
| onecut (GeneID 45816) | 1 | – | – | 6387 | 3.80e5 | inactive |
| CG18810 (GeneID 59171) | 1 | – | – | 6731 | 4.19e5 | inactive |
| CG3744 (GeneID 42972) | 1 | – | – | 6035 | 2.99e5 | inactive |
| CG13955 (GeneID 35968) | 1 | – | – | 5450 | 3.39e5 | inactive |
| CG7248 (GeneID 39356) | 1 | – | – | 5855 | 4.52e5 | inactive |
| CG42376 + cin | 1 | – | – | 7824 | 3.43e5 | inactive |
| CG30284 (GeneID 246527) | 1 | – | – | 9318 | 6.23e5 | inactive |
| CG14931 (GeneID 34588) | 1 | – | – | 6839 | 4.26e5 | inactive |
| CG15882 (GeneID 32895) | 1 | – | – | 5467 | 4.37e5 | inactive |
| CG7289 (GeneID 33372) | 1 | – | – | 13160 | 7.61e5 | inactive |
| Frq2 (GeneID 32799) | 1 | – | – | 5546 | 3.76e5 | inactive |
| sosie (GeneID 42961) | 1 | – | – | 5796 | 3.38e5 | inactive |
| sosie (GeneID 42961) | 2 | – | – | 8748 | 4.95e5 | inactive |
| CG9662 (GeneID 33554) | 1 | – | – | 9320 | 5.40e5 | inactive |
| CG7634 (GeneID 40394) | 1 | – | – | 8253 | 5.56e5 | inactive |
| dup (GeneID 47121) | 1 | – | – | 5115 | 3.66e5 | inactive |
| Ppi1 (GeneID 43581) | 1 | – | – | 8723 | 4.81e5 | inactive |
| CG8067 (GeneID 36552) | 1 | – | – | 8674 | 4.63e5 | inactive |
| Gfrl (GeneID 3346162) | 1 | – | – | 9415 | 3.14e5 | inactive |
| Gfrl (GeneID 3346162) | 2 | – | – | 7091 | 3.31e5 | inactive |
| Gfrl (GeneID 3346162) | 3 | – | – | 8238 | 3.69e5 | inactive |
| Gfrl (GeneID 3346162) | 4 | – | – | 8411 | 3.50e5 | inactive |
| CG9072 (GeneID 32443) | 1 | – | – | 5280 | 4.05e5 | inactive |
| CG1907 (GeneID 43483) | 1 | – | – | 7067 | 3.68e5 | inactive |
| CG7458 (GeneID 40441) | 1 | – | – | 4571 | 3.71e5 | inactive |
| CG7458 (GeneID 40441) | 2 | – | – | 8053 | 4.61e5 | inactive |
| CG12909 (GeneID 36087) | 1 | – | – | 7392 | 4.36e5 | inactive |
| CG17601 (GeneID 33143) | 1 | – | – | 4679 | 2.99e5 | inactive |
| Nelf-E (GeneID 38982) | 1 | – | reporter ratio lowered past the hit cutoff | 6172 | 5.32e5 | active |
| kl-3 (retired record) (GeneID 5740653) | 1 | reporter ratio raised past the hit cutoff | – | 4047 | 1.59e5 | inactive |
| kl-3 (retired record) (GeneID 5740653) | 2 | – | – | 5382 | 3.78e5 | inactive |
| kl-3 (retired record) (GeneID 5740653) | 3 | – | – | 4187 | 3.71e5 | inactive |
| CG6983 (GeneID 38964) | 1 | – | – | 7725 | 4.57e5 | inactive |
| CG12948 (GeneID 41187) | 1 | – | – | 7207 | 3.43e5 | inactive |
| Fpps (GeneID 36209) | 1 | – | – | 9419 | 6.16e5 | inactive |
| hlk (GeneID 46017) | 1 | – | – | 5662 | 3.29e5 | inactive |
| hlk (GeneID 46017) | 2 | – | – | 5618 | 4.29e5 | inactive |
| l(3)S110416 (retired record) (GeneID 46908) | 1 | – | – | 9886 | 3.69e5 | inactive |
| CG10055 (GeneID 40862) | 1 | – | – | 6750 | 3.67e5 | inactive |
| mRpL46 (GeneID 38230) | 1 | – | – | 5702 | 3.66e5 | inactive |
| D12 (GeneID 34172) | 1 | – | – | 58793 | 1.03e6 | inactive |
| Cyp313a1 (GeneID 41759) | 1 | – | – | 7272 | 3.57e5 | inactive |
| Rph (GeneID 32002) | 1 | – | – | 4311 | 3.34e5 | inactive |
| CG9592 (GeneID 39585) | 1 | – | – | 7649 | 4.33e5 | inactive |
| CG10734 (GeneID 36787) | 1 | – | – | 6202 | 2.94e5 | inactive |
| ari-2 (GeneID 37542) | 1 | – | – | 7328 | 5.11e5 | inactive |
| Osi6 (GeneID 40760) | 1 | – | – | 6924 | 4.04e5 | inactive |
| Obp99c (GeneID 43494) | 1 | – | – | 4934 | 3.92e5 | inactive |
| CG30099 (GeneID 36818) | 1 | – | – | 6943 | 2.96e5 | inactive |
| CG32119 (GeneID 317866) | 1 | – | – | 5607 | 4.06e5 | inactive |
| CG32119 (GeneID 317866) | 2 | – | – | 9683 | 5.45e5 | inactive |
| ValRS-m (GeneID 39023) | 1 | – | – | 5967 | 4.32e5 | inactive |
| CG14834 (GeneID 38814) | 1 | – | – | 6107 | 4.39e5 | inactive |
